## Results of single-concentration screens

Source: ChEMBL document CHEMBL3988442, “University of Dundee, Small-Polar-MMV Screening Library” (2021).

Values are the deposited “Percent Effect”, in %. The record does not define 0% and 100%; most values in the screen are far below 50% and negative numbers occur (in some assays of this library far below -100). This is an unselected part of the compounds tested. Two or more numbers in one place are separate tests of the same structure; such repeats can differ widely.

A: 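Growth of Mycobacterium tuberculosis over 4 days (cholesterol / DPPC medium with tyloxapol); the read-out is not stated. Compounds at 50 µM. Direction is inferred from retests: higher values go with more growth inhibition. Size under these conditions: about 69,000 compounds, about 370 of them at 50% or above in at least one test.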
B: 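Phenotypic screen: M. tuberculosis growth, glucose 7H9 medium, 3 days; the read-out is not stated. Compounds at 50 µM. Direction is inferred from retests: higher values go with more growth inhibition. Size under these conditions: about 69,000 compounds, about 760 of them at 50% or above in at least one test.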

{"smiles": "Cc1ccc(-n2cc(CN3CCOCC3)c(-c3cccc(C)c3)n2)cc1", "A": "33 & 48.6", "B": 44.6}
{"smiles": "CN(C)c1nc(N)nc(CN2CCC(c3ccccc3)CC2)n1", "A": -6.476, "B": "-19.85 & 0.5954"}
{"smiles": "COc1ccc(Br)cc1SCCCS(C)(=O)=O", "A": "9.751 & -1.497", "B": 19.44}
{"smiles": "CCc1ncc(CN2CCCN(CC3CC3)C(C(C)C)C2)cn1", "stereo": "centres undefined", "A": -11.83, "B": -17.51}
{"smiles": "CC(C)CC1COCCN1C(=O)Cc1cccs1", "stereo": "centres undefined", "A": 1.011, "B": "2.254 & -13.54"}
{"smiles": "COCCc1noc(CN2CCCC2Cn2cc(C)cn2)n1", "stereo": "centres undefined", "A": 7.512, "B": -26.7}
{"smiles": "Cc1cc(=O)n2ncnc2n1CC(O)c1ccc(F)cc1F", "stereo": "centres undefined", "A": -0.04903, "B": 1.989}
{"smiles": "CNc1cc2c(nn1)CCN(C(=O)c1coc(Br)c1)C2", "A": 14.02, "B": -7.227}
{"smiles": "Cc1nn(C(C)C)c(C)c1NC(=O)c1ccccc1", "A": 5.882, "B": 13.08}
{"smiles": "Cn1ncc2c(N3CCCC(C)(O)C3)nc(-c3cccnc3)nc21", "stereo": "centres undefined", "A": -6.453, "B": -6.326}
{"smiles": "CCN(CC(C)O)C(=O)Nc1cnn(CCOC)c1", "stereo": "centres undefined", "A": -11, "B": "-0.3539 & -6.849"}
{"smiles": "CC(NC(=O)CSCC(N)=O)c1ccc(Oc2ccccc2)cc1", "stereo": "centres undefined", "A": 27.01, "B": 20.36}
{"smiles": "CCc1ccc(C(=O)NCc2ccnc(C)n2)cc1", "A": -26.93, "B": -8.768}
{"smiles": "O=S(=O)(N1CCCC1)N1CCc2sccc2C1", "A": 25.18, "B": 30.78}
{"smiles": "O=C1Nc2ccccc2/C1=C1\\CCCCN1", "A": -20.17, "B": -0.5239}
{"smiles": "Cc1cccc(N2CCN(CCS(=O)(=O)c3ccc(Br)cc3)CC2)c1C", "A": -7.291, "B": 56.95}
{"smiles": "Cc1nccn1-c1ccc(C(=O)NCC(F)(F)F)nn1", "A": 1.655, "B": 10.82}
{"smiles": "Cc1ccc(-c2ccc(C(=O)NCCS(N)(=O)=O)c(F)c2)cc1", "A": -6.72, "B": "15.07 & 17.04"}
{"smiles": "CS(=O)(=O)NCC1CCCN(Cc2ccccc2F)C1", "stereo": "centres undefined", "A": 5.369, "B": -28.81}
{"smiles": "[H][C@@]12CN(Cc3ccco3)C[C@]1([H])OCCN2Cc1cnn(C)c1", "A": "-7.256 & -8.87", "B": "-2.596 & -3.247"}
{"smiles": "CSc1ccc(C(=O)N2CCCC(Nc3ccc(F)cc3)C2)cc1", "stereo": "centres undefined", "A": "25.61 & 2.651", "B": 18.01}
{"smiles": "O=C(N[C@]12CC1CN(C(=O)c1ccco1)C2)c1cccc(F)c1", "stereo": "some centres undefined", "A": -26.14, "B": -15.49}
{"smiles": "O=C(NC1CCCCC1)[C@H]1CNC[C@@H](COc2cccnc2)C1", "A": 6.961, "B": 15.68}

Once more, the final 2:

SMILES,A,B
O=C(N[C@]12CC1CN(C(=O)c1ccco1)C2)c1cccc(F)c1 (some centres undefined),-26.14%,-15.49%
O=C(NC1CCCCC1)[C@H]1CNC[C@@H](COc2cccnc2)C1,6.961%,15.68%